These are yes or no findings as the source states them, for the method shown. In cells and extracts the contact can be indirect. Some results given as binding are weak or reduced against the parent protein; the word gives no strength.
Tests used:
p300 [1] = molecular target: p300 (UniProt Q09472); assay: co-immunoprecipitation (anti-p300 IP, anti-E6 blot) from UMSCC47 lysates
p300 [2] = molecular target: p300 (UniProt Q09472); assay: co-immunoprecipitation with anti-E6 or anti-p300 antibody, immunoblot with anti-V5, anti-E6 or anti-p300
[3] = molecular target: HPV16 E6 (human papillomavirus type 16 (HPV16)) (UniProt P03126); assay: co-immunoprecipitation (anti-E6 IP, anti-V5 blot) from lysates of UMSCC47/CH1 and SCC90/CH1 cells

By UniProt entry, the sequences of proteins in these tests, tags left out. Where a name states a change or a piece, a line headed by the entry shows the natural chain unless it says otherwise.
UniProt Q09472: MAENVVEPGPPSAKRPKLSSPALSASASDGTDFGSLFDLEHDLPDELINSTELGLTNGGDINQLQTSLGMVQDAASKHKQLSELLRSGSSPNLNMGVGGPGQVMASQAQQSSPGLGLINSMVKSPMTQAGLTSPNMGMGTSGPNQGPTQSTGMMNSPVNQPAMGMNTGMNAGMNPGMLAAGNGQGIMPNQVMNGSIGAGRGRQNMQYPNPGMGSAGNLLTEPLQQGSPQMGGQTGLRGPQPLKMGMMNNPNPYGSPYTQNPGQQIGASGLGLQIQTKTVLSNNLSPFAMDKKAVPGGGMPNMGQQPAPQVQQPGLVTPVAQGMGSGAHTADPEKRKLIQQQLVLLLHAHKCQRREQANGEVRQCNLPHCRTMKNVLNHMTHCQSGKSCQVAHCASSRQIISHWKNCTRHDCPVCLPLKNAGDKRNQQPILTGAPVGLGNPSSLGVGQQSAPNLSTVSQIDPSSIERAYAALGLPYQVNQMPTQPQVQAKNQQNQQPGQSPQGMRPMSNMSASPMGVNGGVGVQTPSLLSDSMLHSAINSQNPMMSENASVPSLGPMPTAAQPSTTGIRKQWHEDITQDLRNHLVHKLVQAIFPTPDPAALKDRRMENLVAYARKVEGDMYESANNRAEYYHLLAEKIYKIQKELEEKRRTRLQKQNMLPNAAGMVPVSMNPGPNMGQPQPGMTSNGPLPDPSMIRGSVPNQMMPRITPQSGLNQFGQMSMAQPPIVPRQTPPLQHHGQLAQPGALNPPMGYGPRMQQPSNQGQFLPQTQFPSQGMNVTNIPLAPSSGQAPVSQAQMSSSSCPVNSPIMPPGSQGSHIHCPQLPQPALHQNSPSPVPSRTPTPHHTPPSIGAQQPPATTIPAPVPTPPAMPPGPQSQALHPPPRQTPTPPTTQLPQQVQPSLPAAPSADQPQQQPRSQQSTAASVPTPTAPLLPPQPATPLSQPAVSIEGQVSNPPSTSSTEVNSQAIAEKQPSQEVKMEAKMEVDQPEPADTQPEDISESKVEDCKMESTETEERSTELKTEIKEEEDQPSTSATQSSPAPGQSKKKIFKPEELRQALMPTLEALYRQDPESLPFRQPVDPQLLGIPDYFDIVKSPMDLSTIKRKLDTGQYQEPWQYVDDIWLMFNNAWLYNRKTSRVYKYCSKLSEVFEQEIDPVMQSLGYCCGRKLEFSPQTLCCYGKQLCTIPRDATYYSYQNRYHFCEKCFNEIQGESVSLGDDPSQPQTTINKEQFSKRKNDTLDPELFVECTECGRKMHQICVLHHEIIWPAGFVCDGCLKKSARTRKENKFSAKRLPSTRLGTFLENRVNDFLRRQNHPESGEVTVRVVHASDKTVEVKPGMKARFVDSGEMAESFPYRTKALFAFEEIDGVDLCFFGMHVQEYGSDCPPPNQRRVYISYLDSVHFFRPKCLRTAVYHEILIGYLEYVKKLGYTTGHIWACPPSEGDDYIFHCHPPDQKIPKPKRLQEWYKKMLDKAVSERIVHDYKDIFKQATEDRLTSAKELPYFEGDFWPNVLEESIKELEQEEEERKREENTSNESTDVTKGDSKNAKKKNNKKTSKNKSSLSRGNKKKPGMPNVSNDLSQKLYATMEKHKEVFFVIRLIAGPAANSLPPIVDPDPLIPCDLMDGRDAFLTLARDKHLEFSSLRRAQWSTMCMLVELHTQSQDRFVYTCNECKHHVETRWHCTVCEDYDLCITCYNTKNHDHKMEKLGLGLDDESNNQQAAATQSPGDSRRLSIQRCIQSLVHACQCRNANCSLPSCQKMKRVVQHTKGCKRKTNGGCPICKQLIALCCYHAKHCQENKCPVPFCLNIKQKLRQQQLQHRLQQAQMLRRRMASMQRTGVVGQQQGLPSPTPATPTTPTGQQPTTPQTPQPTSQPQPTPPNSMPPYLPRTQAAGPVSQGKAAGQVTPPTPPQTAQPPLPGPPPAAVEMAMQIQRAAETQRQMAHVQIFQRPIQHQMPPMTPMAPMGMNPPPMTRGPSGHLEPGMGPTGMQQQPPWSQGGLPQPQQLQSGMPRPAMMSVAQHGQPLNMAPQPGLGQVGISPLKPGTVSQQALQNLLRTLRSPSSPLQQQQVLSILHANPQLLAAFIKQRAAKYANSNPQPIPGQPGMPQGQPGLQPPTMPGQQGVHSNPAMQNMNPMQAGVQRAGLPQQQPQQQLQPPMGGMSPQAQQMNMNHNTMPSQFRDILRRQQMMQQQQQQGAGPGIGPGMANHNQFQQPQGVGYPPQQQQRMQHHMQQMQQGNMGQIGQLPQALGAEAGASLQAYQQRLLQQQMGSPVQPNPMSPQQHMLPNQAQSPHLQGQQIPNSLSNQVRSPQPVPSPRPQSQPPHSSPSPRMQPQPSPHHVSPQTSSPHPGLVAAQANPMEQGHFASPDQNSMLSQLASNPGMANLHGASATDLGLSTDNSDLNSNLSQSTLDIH
UniProt P03126: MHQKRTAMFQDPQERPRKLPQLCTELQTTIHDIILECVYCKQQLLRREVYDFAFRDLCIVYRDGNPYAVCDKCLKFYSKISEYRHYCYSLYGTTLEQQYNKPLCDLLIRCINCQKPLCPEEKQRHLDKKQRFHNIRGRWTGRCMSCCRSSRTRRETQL

Substance	binding (p300 [1])	binding (p300 [2])	binding [3]
HPV16 E6 (from UniProt P03126 1-158)	binds	binds	–
exogenous CH1 domain of p300 (pcDNA3.1/CH1) (from UniProt Q09472 332-417)	–	–	binds

— patent US20140205681A1, “HYDROGEN-BOND SURROGATE PEPTIDES AND PEPTIDOMIMETICS FOR p53 REACTIVATION” (New York University, priority 2013, published 2014)
